Data published in publication doi:10.1101/415992.
No constants are given. Whether binding was seen depends on the method and setting. In cells and extracts the contact can be indirect. Some entries that bind do so weakly or less than the wild type. Sequences can lack the tags named with a protein. Each block holds one molecule with its values, some of them ahead of it.

By UniProt entry, the sequences of proteins in these tests, tags left out.
UniProt P40460: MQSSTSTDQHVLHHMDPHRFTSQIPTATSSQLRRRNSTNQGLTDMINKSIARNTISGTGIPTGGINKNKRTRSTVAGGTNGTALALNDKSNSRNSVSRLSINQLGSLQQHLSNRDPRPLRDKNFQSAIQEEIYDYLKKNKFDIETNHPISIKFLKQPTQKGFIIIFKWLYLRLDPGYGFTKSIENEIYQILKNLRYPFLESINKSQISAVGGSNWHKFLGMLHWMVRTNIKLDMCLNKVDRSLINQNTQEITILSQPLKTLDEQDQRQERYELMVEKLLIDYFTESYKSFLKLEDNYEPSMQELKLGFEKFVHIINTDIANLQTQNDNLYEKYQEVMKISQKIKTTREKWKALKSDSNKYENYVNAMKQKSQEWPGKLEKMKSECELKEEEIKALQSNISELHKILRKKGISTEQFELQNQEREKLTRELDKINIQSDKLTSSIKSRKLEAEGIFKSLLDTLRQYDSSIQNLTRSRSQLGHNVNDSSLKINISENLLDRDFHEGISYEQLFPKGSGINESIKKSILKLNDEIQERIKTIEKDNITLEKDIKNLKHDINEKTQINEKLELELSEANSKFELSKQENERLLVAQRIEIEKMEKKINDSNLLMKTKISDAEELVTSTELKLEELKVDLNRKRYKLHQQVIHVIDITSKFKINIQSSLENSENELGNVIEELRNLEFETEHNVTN

Assays:
[1] = molecular target: T1, Dsn1-6His-3Flag (budding yeast) (UniProt P40568); assay: co-IP
T1 sequence: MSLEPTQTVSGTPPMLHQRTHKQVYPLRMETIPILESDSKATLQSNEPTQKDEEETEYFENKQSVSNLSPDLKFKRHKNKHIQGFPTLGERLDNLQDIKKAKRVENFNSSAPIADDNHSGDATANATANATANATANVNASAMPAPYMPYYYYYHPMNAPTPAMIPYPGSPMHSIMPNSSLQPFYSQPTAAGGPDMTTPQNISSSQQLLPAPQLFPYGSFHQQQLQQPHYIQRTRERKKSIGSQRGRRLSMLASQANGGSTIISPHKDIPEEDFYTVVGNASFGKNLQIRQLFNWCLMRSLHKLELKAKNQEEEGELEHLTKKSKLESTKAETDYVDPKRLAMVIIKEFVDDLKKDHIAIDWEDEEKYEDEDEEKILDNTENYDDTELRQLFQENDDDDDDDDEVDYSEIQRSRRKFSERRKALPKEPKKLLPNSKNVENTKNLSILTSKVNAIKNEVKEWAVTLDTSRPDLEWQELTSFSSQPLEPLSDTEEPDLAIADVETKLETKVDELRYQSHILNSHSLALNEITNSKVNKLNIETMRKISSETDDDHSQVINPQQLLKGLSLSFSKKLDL

[2] = molecular target: T2, Dad1-3Flag (budding yeast) (UniProt Q12248); assay: co-IP
T2 sequence: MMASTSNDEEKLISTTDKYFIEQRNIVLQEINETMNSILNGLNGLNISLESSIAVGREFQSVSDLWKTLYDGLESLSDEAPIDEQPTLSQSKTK

binding [1]: binds
Molecule: Ndc80 (from UniProt P40460 1-691)

binding [2]: binds
B1: Spc34 (protein, UniProt P36131 1-295)
chain: MGESLDRCIDDINRAVDSMSTLYFKPPGIFHNAILQGASNKASIRKDITRLIKDCNHDEAYLLFKVNPEKQSVSRRDGKEGVFDYVIKRDTDMKRNRRLGRPGEKPIIHVPKEVYLNKDRLDLNNKRRRTATTSGGGLNGFIFDTDLIGSSVISNSSSGTFKALSAVFKDDPQIQRLLYALENGSVLMEEESNNQRRKTIFVEDFPTDLILKVMAEVTDLWPLTEFKQDYDQLYHNYEQLSSKLRFIKKEVLLQDDRLKTMSQYHPSSSHDVAKIIRKEKDEIRRLEMEIANLQE

binding [1]: binds
B2: Spc105 (protein, UniProt P53148 1-917)
chain: MNVDERSRIGGREKDAGPGKGILKQNQSSQMTSSFLENPGVRIPTRIITKKEVLDGSNTTSRINTSNLQSMVKRRVSFAPDVTLHSFTFVPEQNNEIKEPRRRKTSTNSPTKISSQEEPLVTSTQIDDARTEEKTAAEEDPDTSGMELTEPIVATPDSNKASQHDPTSMEMTEVFPRSIRQKNPDVEGESIESSQQIDDVEAVREETMELTAIHNVHDYDSISKDTVEGEPIDLTEYESKPYVPNSVSRSTGKSSDYSVERSNDKSDLSKSENKTNSSQPMEITDIFHADPQNPMSLHSDNNINNDGNEMELTQIQTNFDRDNHHIDESPSEKHAFSSNKRRKLDTVSDYAASVTTPVKEAKDTSGEDNDGDLEMMEKMSPITFSDVDNKIGTRSNDVFTIEPGTEDTGMQTATDDEEDGENVDDNGNKIVEKTRLPEIDKEGQSGIALPTQDYTLREFINEVGVGFLDTKLIDDLDKKVNFPLNSFNFVENQRIDNVFSAFYIDIPILEVEAFRCKELWRSINESKDKFKDFEAQIDKSHPPLLLQEYFSSDEKMKQLMRDQLQLVKGYSKLEAAMEWYEWRKKQLNGLELILAENLNTLKREYEKLNEEVEKVNSIRGKIRKLNEAIKEEIRSLKNLPSDSYKPTLMNRIKIEAFKQELMEHSISLSSSNDFTQEMRSLKLAIAKKSNDILTLRSEVASIDKKIEKRKLFTRFDLPKLRDTLKILESLTGVRFLKFSKATLSIAFLQLDDLRVDINLANFKNNPLSSMKVMNDSNNDDMSYHLFTMLLKNVEAEHQDSMLSNLFFAMKKWRPLLKYIKLLKLLFPVKITQTEEEEALLQFKDYDRRNKTAFFYVISLVSFAQGVFSENGQIPMKVHISTQQDYSPSREVLSDRITHKISGVLPSFTKSRIHLEFT
